For at least one entry, the source does not settle the construct or the ends of the probe. No signal at the amounts used counts as a negative. At least one verdict rests on a figure or table, not on a statement of the authors. Where a protein sequence is shown, tags need not be part of it.

The target of data set [1] is T1, SlTFT1 (14-3-3 protein) (Solanum lycopersicum (M82 cDNA)) (UniProt P93206).
T1 sequence (looked up): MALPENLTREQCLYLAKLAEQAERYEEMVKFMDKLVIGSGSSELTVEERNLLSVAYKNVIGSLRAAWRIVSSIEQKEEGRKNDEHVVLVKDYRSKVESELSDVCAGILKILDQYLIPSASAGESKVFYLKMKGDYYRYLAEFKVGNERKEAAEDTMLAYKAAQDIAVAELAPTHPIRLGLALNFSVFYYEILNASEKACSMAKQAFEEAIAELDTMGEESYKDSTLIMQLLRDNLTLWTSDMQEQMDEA
As to the kind of experiment: EMSA. The following applies: EMSA: binding buffer (composition not given), 30 min at 25 C; 6% native polyacrylamide gel at 4 C; FAM detection; protein translated in vitro; residues 1-249; protein details: 6xHis; label: FAM. A general note: In EMSA bound probe runs differently from free probe, usually more slowly.

The target of data set [2] is T2, YFT1-C (EIN2-like protein, C-terminal part) (Solanum lycopersicum) (UniProt A0A3Q7HW43).
T2 sequence (looked up, limits assumed): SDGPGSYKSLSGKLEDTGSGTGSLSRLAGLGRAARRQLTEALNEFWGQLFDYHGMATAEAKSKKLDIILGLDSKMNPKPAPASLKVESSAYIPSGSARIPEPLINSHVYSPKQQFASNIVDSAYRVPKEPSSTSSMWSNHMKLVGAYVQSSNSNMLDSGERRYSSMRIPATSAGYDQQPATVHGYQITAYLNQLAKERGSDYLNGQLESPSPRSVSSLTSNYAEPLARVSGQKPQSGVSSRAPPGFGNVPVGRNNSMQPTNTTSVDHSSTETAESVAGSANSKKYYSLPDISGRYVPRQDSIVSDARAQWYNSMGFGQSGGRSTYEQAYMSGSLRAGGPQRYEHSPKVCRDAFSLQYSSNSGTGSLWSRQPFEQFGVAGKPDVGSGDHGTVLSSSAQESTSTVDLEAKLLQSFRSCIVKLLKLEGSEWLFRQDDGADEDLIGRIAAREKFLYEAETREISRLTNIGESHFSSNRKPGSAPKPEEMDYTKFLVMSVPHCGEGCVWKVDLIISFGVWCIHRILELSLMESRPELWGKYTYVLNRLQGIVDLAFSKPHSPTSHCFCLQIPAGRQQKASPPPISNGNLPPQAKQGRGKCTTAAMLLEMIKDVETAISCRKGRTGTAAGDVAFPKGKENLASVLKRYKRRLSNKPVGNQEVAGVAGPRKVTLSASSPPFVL
As to the kind of experiment: EMSA. The following applies: EMSA: binding buffer (composition not given), 30 min at 25 C; 6% native polyacrylamide gel at 4 C; FAM detection; protein translated in vitro; protein details: 6xHis; label: FAM.

For “CCATCTCTCTAGGATATGTATTATGTACAGGTTCCTCTCTTT (double strand) [pYFT1-probe1]”, the binding result in data set [1] is listed as “no binding”.

Take “CTTTTAACTGGAATTAACATGTATATAGTTTTAGTTTGGATA (double strand) [pYFT1-probe2]”: the binding result in data set [1] was “no binding”.

“GTTAGAATATCAGCTATAAATGTAGTCGAATTCAATAATTTT (double strand) [pSlTFT1-probe1]”: the binding result in data set [2] is “no binding”.

Regarding “TAATTCAACAAAATAAATGATGTATTTTTTTTTTATATATTC (double strand) [pSlTFT1-probe2]”, in data set [2], the binding result is given as “no binding”.

These data come from publication PMC12576456.
